Literature values in patent US8258130B2 (Sanofi, priority 2007, dated 2012).
At least one structure is not confirmed: it was looked up by name or label, or the drawing left a doubt.

Tested on: PGDS
Details: cited from earlier work

COc1ccc(/C=C/C(=O)Nc2ccccc2C(=O)O)cc1OC [Tranilast]
PGDS inhibition: PGDS inhibitor
